# In patent US20240294571A1, “ANALGESIC AND ANESTHETIC PEPTIDES AND OTHER AGENTS” (The Research Foundation for The State University of New York, priority 2019, published 2024):
# At least one peptide structure holds a part that was inferred or is arguable (an end, a ring closure or a residue). Peptide text beside a SMILES is read from it. * marks the point of attachment. Myristoyl = CCCCCCCCCCCCCC(=O)*
# Legend:
# [1] = tested on: C57BL/6 mice; test: CFA-induced inflammatory pain, thermal sensitivity (Hargreaves); format: in vivo, mouse; settings: for tau (τ), time constant of thermal sensitivity recovery: time in days; for total A.U.C. of thermal sensitivity / recovery of thermal sensitivity after peptide injection: n=4
# Method: Freund's Complete Adjuvant Chronic Pain Model. C57BL/6 mice were anesthetized (induction: 3%, maintenance: 2%) and placed in a prone position. After the animals were under a surgical plane of anesthesia, denoted by a loss of reaction to both a tail and hind paw pinch, they received a 20 μL injection of Imject™ Freund's Complete Adjuvant (FCA; Thermo Fisher Scientific) and allowed to recover. Behavior testing resumed 24 hours post FCA injection. Each cohort of animals received FCA from previously unopened, vacuum sealed glass ampules to minimize variations between groups.
# (§1) Hargreaves Assay. Animals were placed on an enclosed elevated frosted glass platform (Ugo Baseline) and allowed 30 minutes for habituation. Once exploratory behavior ceased, an automatic Hargreaves apparatus was maneuvered (Ugo Baseline) underneath the hind paw(s) of the animals. Paw withdrawal latency was calculated as the average of four trials per hind limb. Each trial was followed by a 5-minute latency period to allow adequate recovery time between trials.
# Complete Freund's Adjuvant Induced Inflammatory Pain: Male and female C57BL/6 mice were randomized into experimental and control groups. In order to maintain consistency in regards to site of injection, mice were anesthetized and injected with a 32-gauge disposable syringe filled with 20 μL of Imject™ Complete Freund's Adjuvant (Thermo Fisher Scientific) into the plantar surface of the right hind paw and allowed to recover. Behavior testing resumed 24 hours post-CFA injection at which point the animals received a 20 μL intraplantar injection of 100 μM (3.154 μg total) lipidated peptidomimetic immediately after the conclusion of day 1 behavioral testing. In order to minimize experimental error between groups, each group of animals received CFA from previously unopened, vacuum-sealed glass ampules ensuring CFA of identical specific activity.
# as §1, with “Thermal Sensitivity Testing: Prior to testing, animals were allowed to habituate to the testing room for 1 hour on each day. Animals were” for “Hargreaves Assay. Animals were”, “maneuvered (Ugo Basile) underneath the” for “maneuvered (Ugo Baseline) underneath the”
# [2] = tested on: rat hind paws; test: Hematoxylin & eosin staining, immune cells and gait in incisional pain model; format: in vivo; settings: incision injury
# Method: (A) Animals were treated as previously stated in the Methods section. However, no behavior was collected, instead, animals were sacrificed via transcardial perfusion, and tissue was collected for staining. (Top) Representative images depicting hematoxylin & eosin staining of rat hind paws in scrambled (n=2) and AP2 inhibitory peptide groups (n=2). Localized immune cells can be observed in the dermis in each condition. (Bottom) 24 hours following incision, there is a rapid increase in the number of immune cells. […] (B) Representative images of incision site in animals that received either the scrambled peptide (top) or AP2 inhibitory peptide (bottom). Black arrows highlight significant granuloma-like structures.
# [3] = tested on: rats; test: Incisional post-operative pain model, thermal sensitivity; format: in vivo, rat; settings: for tau (τ), rate of recovery following incision: exponential decay fit, time in days; for total A.U.C. of thermal sensitivity: n=6
# Method: Incisional post-operative pain model: To model post-operative pain, an established rat incisional model was used. In short, male and female rats were randomized into either experimental or control groups. On the day of surgery, the animals were anesthetized and placed into a prone position. Once the animal was under a surgical plane of anesthesia, a 200 μL intraplantar injection of 100 μM (31.54 μg total) lipidated peptidomimetic was made into the ipsilateral hind paw. Afterwards, the animals were returned to their home cage and allowed to recover. On the same day, 6 hours after the pre-injection, the animals were anaesthetized, placed into a prone position, and prepared for incision injury. The ipsilateral hind paw was sterilized using successive swabs of chlorohexidine, 70% ethanol, and iodine. Then, using a size 10 scalpel, a 1 cm long incision was made into the plantar surface of the ipsilateral hind paw. Short, yet firm, strokes were used to make incisions through the skin, fascia, and muscle of the hind paw. Following incision, two 50 μL injections, containing 100 μM (7.885 μg per injection) of the lipidated peptidomimetic, were made into each “half” of the incised plantar muscle. Following injection into the muscle, the skin was sutured using 6/0 silk sutures (Ethicon) in a continuous manner to discourage removal of sutures. Upon conclusion of suturing, four 25 μL injections containing 100 μM (3.9425 μg per injection) of the lipidated peptidomimetic, were made into a “quadrant” adjacent to the incision. Finally, the animals were returned to their home cage and allowed to recover for at least 16 hours.
# as §1, with “Thermal Sensitivity Testing: Prior to testing, animals were allowed to habituate to the testing room for 1 hour on each day. Animals were” for “Hargreaves Assay. Animals were”, “maneuvered (Ugo Basile) underneath the” for “maneuvered (Ugo Baseline) underneath the”
# [4] = tested on: CGRP; test: CGRP immunoreactivity in hind paw afferents after peptide injection; format: in vivo, mouse
# [5] = tested on: C57BL/6 mice; test: CFA-induced edema, cross-sectional area of ipsilateral hind paw; format: in vivo, mouse; settings: peptide injected; CFA model
# [6] = tested on: C57BL/6 mice; test: CFA-induced inflammatory pain, mechanical sensitivity (von Frey); format: in vivo, mouse; settings: one-time peptide administration 24 h after CFA, effect at 24 hours after administration
# [7] = tested on: C57BL/6 mice; test: Formalin acute inflammatory pain assay; format: in vivo, mouse; settings: for cumulative phase 2 paw licking behavior: single i.pl. peptide injection (100 μM, 20 μL) 24 h before 5% formalin, n=6
# Method: (§2) Formalin Assay. Male and female C57BL/6 mice were randomly assigned to either control or experimental groups. Animals were habituated to the formalin testing chamber for 30 minutes or until exploratory behavior ceased the day of experimentation. Following the habituation period, animals were removed from the chamber and given an intraplantar injection of 5% formalin into the ipsilateral hind paw, then immediately placed back into the testing chamber and recorded. Animals were recorded for at least 90 minutes after formalin injection using Active WebCam software. Videos were subsequently scored for number of paw licks, number of paw lifts, and number of full body flinches. All behaviors were scored for a full minute, every five minutes, for 90 minutes of video recording.
# as §2, with “Assay:” for “Assay.”, “groups. Animals received a 20 μL intraplantar injection of 100 µM (3.154 μg total) of the lipidated peptidomimetic 24 hours prior to experimentation.” for “groups.”, “recording. Scorers were blinded to experimental conditions.” for “recording.”
# [8] = tested on: primary DRG neurons; settings: previously shown; cited from earlier work
# [9] = tested on: rats; test: Incisional post-operative pain model, mechanical sensitivity (Dynamic Plantar Aesthesiometer); format: in vivo, rat; settings: post-incision
# [10] = single i.pl. peptide injection (100 μM, 20 μL) 24 h after CFA, n=8
# [11] = peptide 100 μM 6 h before and immediately after plantar incision
# [12] = listed as AP2 inhibitory peptide
smiles,measurement,setting,value
"CCCCCCCCCCCCCC(=O)N[C@@H](CCCNC(=N)N)C(=O)N[C@@H](CCSC)C(=O)N[C@@H](CO)C(=O)N[C@@H](CCC(=O)O)C(=O)N[C@H](C(=O)N[C@@H](CCCCN)C(=O)N[C@@H](CCCNC(=N)N)C(=O)N[C@@H](CC(C)C)C(=O)N[C@@H](CC(C)C)C(=O)N[C@@H](CO)C(=O)N[C@@H](CCC(=O)O)C(=O)O)[C@@H](C)CC [AP2 inhibitor peptide, RMSEIKRLLSE (SEQ ID NO: 1)] (Myristoyl-RMSEIKRLLSE-OH; N-terminus and C-terminus assumed)",paw withdrawal latency day-1,"[1]; 24 h after CFA, before the single i.pl. peptide injection, n=8",2.2 ± 0.3 s
same,"total A.U.C. of thermal sensitivity, ipsilateral paw","[1]; all animals, n=8",significant increase
same,"tau (τ), time constant of thermal sensitivity recovery","[1]; all animals, first order exponential decay fit",2.21
same,total A.U.C. of thermal sensitivity,[1]; female animals,muted analgesic-like
same,recovery of thermal sensitivity after peptide injection,"[1]; female animals, compared to scrambled peptide, delayed compared to male mice",accelerated recovery
same,"tau (τ), time constant of thermal sensitivity recovery","[1]; female mice, exponential decay fit",2.40
same,recovery of thermal sensitivity after peptide injection,[1]; male animals,immediate return to baseline
same,total A.U.C. of thermal sensitivity,[1]; male animals,retention of the analgesic-like effect
same,"tau (τ), time constant of thermal sensitivity recovery","[1]; male mice, exponential decay fit",2.04
same,persistence of reduction in thermal hyperalgesia,[1]; one-time injection 24 h after CFA (Example 1),96 h
same,paw withdrawal latency day-2,[1]; [10],6.1 ± 0.8 s
same,paw withdrawal latency day-3,[1]; [10],7.3 ± 0.6 s
same,paw withdrawal latency day-5,[1]; [10],8.3 ± 0.7 s
same,paw withdrawal latency day-9,[1]; [10],8.0 ± 0.6 s
same,duration of effect in the chronic pain model,[1]; single injection,> 72 h
same,duration of persistent increase in paw withdrawal latency,[1]; single injection into inflamed paw 24 h after CFA,4 days
same,attraction of immune cells to the site of injury,[2],did not appear to interrupt
same,"total A.U.C. of thermal sensitivity, ipsilateral paw","[3]; all animals, n=12",significant increase
same,"tau (τ), rate of recovery following incision",[3]; all rats,3.37
same,days with statistically significant increases in PWT (thermal),"[3]; female animals, late-phase response",day 3-day 6
same,total A.U.C. of thermal sensitivity,[3]; female animals,trend towards an analgesic-like effect
same,day by which thermal responsiveness returned to baseline,[3]; female rats,3 days
same,"tau (τ), rate of recovery following incision",[3]; female rats,5.28
same,days with statistically significant increases in PWT (thermal),"[3]; male animals, early-phase response",day 1-day 4
same,total A.U.C. of thermal sensitivity,[3]; male animals,trend towards an analgesic-like effect
same,"tau (τ), rate of recovery following incision",[3]; male rats,2.70
same,paw withdrawal latency day-1,[3]; [11],8.4 ± 0.4 s
same,paw withdrawal latency day-2,[3]; [11],9.0 ± 0.3 s
same,paw withdrawal latency day-3,[3]; [11],10.4 ± 0.5 s
same,paw withdrawal latency day-4,[3]; [11],10.4 ± 0.6 s
same,paw withdrawal latency day-5,[3]; [11],11.4 ± 0.5 s
same,paw withdrawal latency day-6,[3]; [11],11.0 ± 0.6 s
same,paw withdrawal latency day-7,[3]; [11],12.1 ± 0.6 s
same,paw withdrawal latency day-8,[3]; [11],11.5 ± 0.5 s
same,paw withdrawal latency day-9,[3]; [11],12.0 ± 0.5 s
same,CGRP immunoreactivity in peripheral afferents of the dermis,"[4]; localized inhibition for 24 hours, non-inflammatory conditions, n=3 mice",visualization of CGRP immunoreactivity in the very distal layers of the stratum granulosum (SG)
same,CGRP retention in peripheral fibers,[4]; peptide administered 24 hours after establishment of CFA-induced inflammation,not observed
same,inflammatory edema,[5],neither genetic knockdown nor peptide inhibition affected inflammatory edema
same,mechanical sensitivity / mechanical allodynia,[6]; [12],only slightly affected
same,mechanical sensitivity / mechanical allodynia,[6]; listed as AP2 peptide inhibitor,small yet significant reduction
same,other measures of pain-like behavior,[7]; single i.pl. peptide injection 24 h before 5% formalin,relatively unchanged
same,cumulative phase 2 paw licking behavior,[7],significantly reduced
same,cumulative phase 2 paw licking behavior,[7]; [12],89±23
same,clathrin recruitment to the membrane,[8],blocks
same,hyperexcitability during PKA stimulation,[8],prevents
same,ipsilateral mechanical sensitivity,[9],no significant change
